# Library screen at single concentrations

Protein sequences, listed by entry. Tags and fused reporters are not part of them.
UniProt P9WNZ1, whole entry: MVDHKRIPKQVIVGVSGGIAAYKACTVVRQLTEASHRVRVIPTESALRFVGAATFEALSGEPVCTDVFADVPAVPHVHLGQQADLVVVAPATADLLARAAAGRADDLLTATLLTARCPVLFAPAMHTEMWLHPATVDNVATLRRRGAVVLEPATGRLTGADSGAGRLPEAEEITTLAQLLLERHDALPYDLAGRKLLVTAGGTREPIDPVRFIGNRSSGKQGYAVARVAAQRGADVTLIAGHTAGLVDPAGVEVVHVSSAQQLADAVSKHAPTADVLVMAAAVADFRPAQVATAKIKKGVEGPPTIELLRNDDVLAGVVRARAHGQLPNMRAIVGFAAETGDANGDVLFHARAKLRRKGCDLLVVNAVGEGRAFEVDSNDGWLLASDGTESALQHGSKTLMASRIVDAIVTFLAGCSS

Source: ChEMBL document CHEMBL3988442, “University of Dundee, Small-Polar-MMV Screening Library” (2021).

Values are the deposited “Percent Effect”, in %.
The record does not define 0% and 100%; most values in the screen are far below 50% and negative numbers occur (in some assays of this library far below -100).
Compounds were drawn at random from those tested, without regard to their results.
Two or more numbers in one place are separate tests of the same structure; such repeats can differ widely.

A: 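Cell assay of Leishmania donovani living inside macrophages; the read-out is not stated. Tested at 30 µM. Direction is inferred from retests: higher values go with stronger inhibition. Of about 69,000 compounds tested this way, about 1,000 (1.5%) reached 50% or more in at least one test.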
B: 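Enzyme assay of CoaBC with a phosphate dye (Biomol Green) read at 650 nm. Target: Coenzyme A biosynthesis protein CoaBC, Mycobacterium tuberculosis (UniProt P9WNZ1). Tested at 30 µM. Direction is inferred from only a few compounds that gave an IC50; most scored high, so higher reads as stronger inhibition. Most strong results did not repeat in a second test. Size under these conditions: about 67,000 compounds, about 40 of them at 50% or above in at least one test.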

* CC(C)CN1CCC2(C=C(C(=O)NC3CC3)c3ccccc32)CC1.O=C(O)C(F)(F)F : A: 9.533%
* CCN(CC1CN(Cc2c(C)noc2C)CCO1)c1cccnn1 (stereo unspecified) : A: 0.02957%; B: -6.198%
* Cc1nc(C2CCN(C(=O)COC(C)C)CC2)cc(N2CCOCC2)n1 : A: 18.65%; B: 5.159%
* c1ccc(-c2nc(CN3CCCC3Cn3cncn3)no2)cc1 (stereo unspecified) : A: 22.47%; B: 5.957%
* O=C(CN1CCOC(c2ccc(Cl)s2)C1)NCc1ccco1 (stereo unspecified) : A: 0.7444%; B: 6.519%
* COc1cccc(C2CCN2C(=O)c2cnccn2)c1 (stereo unspecified) : A: 0.907%; B: 5.785%
* Cc1nc(CN2CCCn3cnc(COC(C)C)c3C2)cs1 : B: 1.269%
* CN(Cc1ccco1)[C@@H]1CN(Cc2ccc(F)cc2)[C@@H]2CCCO[C@H]12 : B: 0.1236%
* NC(=O)CCn1ccc(NCc2cc(F)ccc2Br)n1 : A: 18.97%; B: 1.84%
* CN1CC2(CCN(C(=O)Cc3ccc(O)c(F)c3)CC2)CC1=O : A: 6.441%; B: -2.479%
* CC(C)NC(=O)NCc1ccnc(N(C)C)n1 : A: 40.45%; B: 3.902%
* Cc1nc(-c2ccccc2C)n(CC(=O)NC(C)C2CC2)n1 (stereo unspecified) : A: 23.03%; B: 3.74%
* CC1CN(C)CCN1C(=O)c1ccc(-n2cnnc2)cc1 (stereo unspecified) : A: 18.08%; B: 0%
* COC(=O)NCC(=O)N1CCCn2nc(CN3CC[C@H](F)C3)cc2C1 : A: 15.22%; B: -0.4866%
* COC(=O)c1sc(NCc2ccc(N3CCC(O)CC3)c(F)c2)nc1Cl : A: 25.41%; B: 1.629%
* Cc1ncc(-c2ccnc(NCCc3ccc(F)cc3)n2)c(=O)[nH]1 : A: 1.394% & 15.79%; B: 1.566%
* COc1cc(N2CC[C@@H]3OCCN(C)[C@H]3CC2)ncn1 : B: 1.733%
* c1cnc(N2CCC(NCc3cnc(C4CCC4)s3)CC2)nc1 : A: 14.81%; B: 2.552%
* CN(Cc1cc(-c2ccncc2)no1)Cc1nccn1C : A: -26.86%; B: -1.485%
* COc1ccc(CNC(=O)N2CCCC(Nc3ccccc3)C2)cn1 (stereo unspecified) : A: 11.92%; B: -1.988%
* O=C(c1cscn1)N1CCC[C@]2(C[C@H](OCC3CC3)CO2)C1 : A: 14.44%; B: -2.332%
* Cc1cccc(C2CCCN(S(=O)(=O)c3cccnc3)C2)n1 (stereo unspecified) : A: 10.47%; B: 6.22%
* COc1cccc(-c2cccc(N3CCC(N[C@@H]4CCOC4)CC3)c2)c1 : A: 96%; B: -6.777%
* Cn1cc(C[C@H]2[C@H](N3CCOCC3)CCN2C(=O)c2ccco2)cn1.O=C(O)C(F)(F)F : A: 26.7%
* Clc1snnc1CN1CCN(c2nccs2)CC1 : A: -11.24%; B: 2.02%
* CC(C)N1CCc2[nH]nc(C(=O)N3CCN(C)CC3)c2C1 : B: 1.018%
* Cc1nc(C2CCCN(C(=O)c3ccncc3)C2)c2sccn12 (stereo unspecified) : A: 7.339% & 8.087%; B: 3.148%
* CCCN(Cc1ccc(OC)nc1)Cc1ccccc1OC : A: -2.33%; B: 11.87%
* Cc1nc(CN(C)CC(c2cccs2)N2CCOCC2)no1 (stereo unspecified) : A: -11.7%; B: 0.7653%
* COCc1nc(N2CCC(CCO)CC2)c2cnn(C)c2n1 : A: -1.339%; B: -6.634%
* O=C1[C@H]2CN(Cc3ccccn3)C[C@H]2CN1c1ccsc1 : B: 1.826%
* O=C(O)C(F)(F)F.[H][C@]12CCC[C@@]1(COCc1cccnc1)CN(S(=O)(=O)N(C)C)C2 : A: 13.79%
* CCCc1ccc(C(=O)N2CCn3c(nnc3C(C)C)C2)cc1 : A: -27.24%; B: 7.559%
* Cc1cc(S(=O)(=O)N2C[C@H](C3CC3)[C@@H](N)C2)c(C)s1 : A: 39.83%; B: 2.99%
* CCC(CO)N(Cc1ccsc1)Cc1ccccc1C(=O)O (stereo unspecified) : A: 12.24%; B: 8.182%
* O=C(O)C(F)(F)F.[H][C@@]12CCN(CCc3ccccc3)C[C@@]1([H])O[C@@H](C(=O)NCCOC)C2 : A: 57.9%
* CCOc1cc([C@H]2N[C@@H](c3nc(C)cs3)Cc3ccsc32)ccc1OC : A: 40.05%; B: -5.425%
* CC(=O)Nc1nc(C(=O)NCc2ccc(OC(C)C)nc2)cs1 : A: 13.51%; B: 4.707%
* COCCN1C(=O)CC[C@@H]2[C@H]1CCN2C(=O)C1CCOCC1 : B: 11.27%
* Cl.c1ncc(-c2ccc(C3CNCCO3)nc2)cn1 (stereo unspecified) : A: 3.702% & -9.368%
* Cc1cccnc1N1CCC(c2nccn2Cc2cscn2)CC1 : A: -1.87%; B: 5.141%
* CCCc1nnc(N(C)CC2CCN(CC(C)C)C2)o1 (stereo unspecified) : A: 3.998%; B: 9.153%
* O=C(O)C(F)(F)F.[H][C@@]12CCCO[C@]1([H])[C@H](NC(=O)c1cscn1)CN2CC1CC1 : A: 27.13%
* CC(C)(C)Cc1nnc(NCc2ccsc2)o1 : A: -25.06%
* CCc1nc(CNC(=O)Nc2ccc(C(=O)NC)cc2C)cs1 : A: 13.69%; B: 11.16%
* CSc1ccc(OCCN2CCNC(=O)C2C)cc1 (stereo unspecified) : A: -55.87%; B: 2.886%
* COc1ccc(CNC2CCC(O)CC2)cc1OCCCC#N (stereo unspecified) : A: 46.32%; B: 3.883%
* Cc1c(C(=O)N2CCCSCC2)nnn1-c1ccccc1Cl : A: -8.614% & -4.028%; B: 2.036%